Data source: PubChem BioAssay AID1259308 (NCATS, 2017)

Screen: 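Genes whose loss raises luciferase production in HEK293 cells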 (primary screen)
Cells: human HEK293 embryonic kidney cells stably expressing firefly luciferase (HEK-CMV-Luc2-Hygro)
Reagent: single siRNA against human genes, 0.8 pmol siRNA per well
Time to read-out: 72 h
Detection: 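Reporter luminescence and viable-cell signal on separate replicate plates, given as percent of non-targeting control and median/MAD z-scores, plus per-cell luciferase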
Scale: total luciferase, z-score: higher = more reporter protein produced
Hit rule: 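An siRNA counts as active if its total luciferase robust z-score exceeds 3; genes with two or more such siRNAs out of three were retested with fresh siRNAs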
Meaning of the calls: active = raised luciferase; inactive = no rise
Here is an unselected part of about 59,000 deposited reagents. About 1,510 of all reagents (2.6%) count as active. 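Calls use total luciferase alone and ignore viability, so some active siRNAs may act by altering cell number.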 Unmarked entries are inactive. The numbers tell different reagents against one gene apart. Further read-outs or replicates are left out here.

{"Gene": "KYAT1 (GeneID 883)", "reagent": 1, "total luciferase, z-score": 2.54}
{"Gene": "KYAT1 (GeneID 883)", "reagent": 2, "total luciferase, z-score": -0.325}
{"Gene": "KYAT1 (GeneID 883)", "reagent": 3, "total luciferase, z-score": 1.04}
{"Gene": "CIT (GeneID 11113)", "reagent": 1, "total luciferase, z-score": -1.48}
{"Gene": "CIT (GeneID 11113)", "reagent": 2, "total luciferase, z-score": -0.236}
{"Gene": "CIT (GeneID 11113)", "reagent": 3, "total luciferase, z-score": -0.251}
{"Gene": "C11orf40 (GeneID 143501)", "reagent": 1, "total luciferase, z-score": 0.831}
{"Gene": "C11orf40 (GeneID 143501)", "reagent": 2, "total luciferase, z-score": 2.95}
{"Gene": "C11orf40 (GeneID 143501)", "reagent": 3, "total luciferase, z-score": 0.678}
{"Gene": "HMGB4 (GeneID 127540)", "reagent": 1, "total luciferase, z-score": -0.402}
{"Gene": "HMGB4 (GeneID 127540)", "reagent": 2, "total luciferase, z-score": -0.518}
{"Gene": "HMGB4 (GeneID 127540)", "reagent": 3, "total luciferase, z-score": 0.887}
{"Gene": "PLPBP (GeneID 11212)", "reagent": 1, "total luciferase, z-score": 0.573}
{"Gene": "PLPBP (GeneID 11212)", "reagent": 2, "total luciferase, z-score": -0.411}
{"Gene": "PLPBP (GeneID 11212)", "reagent": 3, "total luciferase, z-score": -2.14}
{"Gene": "FAT1 (GeneID 2195)", "reagent": 1, "total luciferase, z-score": -1.6}
{"Gene": "FAT1 (GeneID 2195)", "reagent": 2, "total luciferase, z-score": 0.0312}
{"Gene": "FAT1 (GeneID 2195)", "reagent": 3, "total luciferase, z-score": 0.117}
{"Gene": "SPATA2L (GeneID 124044)", "reagent": 1, "total luciferase, z-score": 1.6}
{"Gene": "SPATA2L (GeneID 124044)", "reagent": 2, "total luciferase, z-score": 2.11}
{"Gene": "SPATA2L (GeneID 124044)", "reagent": 3, "total luciferase, z-score": 0.415}
{"Gene": "TRIM51 (GeneID 84767)", "reagent": 1, "total luciferase, z-score": -0.161}
{"Gene": "TRIM51 (GeneID 84767)", "reagent": 2, "total luciferase, z-score": -0.79}
{"Gene": "TRIM51 (GeneID 84767)", "reagent": 3, "total luciferase, z-score": 0.628}
{"Gene": "MMP11 (GeneID 4320)", "reagent": 1, "total luciferase, z-score": 0.132}
{"Gene": "MMP11 (GeneID 4320)", "reagent": 2, "total luciferase, z-score": -0.207}
{"Gene": "MMP11 (GeneID 4320)", "reagent": 3, "total luciferase, z-score": -1.54}
{"Gene": "MPPE1 (GeneID 65258)", "reagent": 1, "total luciferase, z-score": -1.54}
{"Gene": "MPPE1 (GeneID 65258)", "reagent": 2, "total luciferase, z-score": -0.343}
{"Gene": "MPPE1 (GeneID 65258)", "reagent": 3, "total luciferase, z-score": 2.23}
{"Gene": "TAL2 (GeneID 6887)", "reagent": 1, "total luciferase, z-score": 0.627}
{"Gene": "TAL2 (GeneID 6887)", "reagent": 2, "total luciferase, z-score": 1.57}
{"Gene": "TAL2 (GeneID 6887)", "reagent": 3, "total luciferase, z-score": 0.321}
{"Gene": "CSNK2B (GeneID 1460)", "reagent": 1, "total luciferase, z-score": "4.74 (active)"}
{"Gene": "CSNK2B (GeneID 1460)", "reagent": 2, "total luciferase, z-score": 2.72}
{"Gene": "CSNK2B (GeneID 1460)", "reagent": 3, "total luciferase, z-score": 2.49}
{"Gene": "SAMD15 (GeneID 161394)", "reagent": 1, "total luciferase, z-score": -0.0636}
{"Gene": "SAMD15 (GeneID 161394)", "reagent": 2, "total luciferase, z-score": 2.66}
{"Gene": "SAMD15 (GeneID 161394)", "reagent": 3, "total luciferase, z-score": 0.226}
{"Gene": "TMEM270 (GeneID 135886)", "reagent": 1, "total luciferase, z-score": 0.168}
{"Gene": "TMEM270 (GeneID 135886)", "reagent": 2, "total luciferase, z-score": -0.579}
{"Gene": "TMEM270 (GeneID 135886)", "reagent": 3, "total luciferase, z-score": -0.083}
